In patent EP4725966A1, “HUMAN EPIDERMAL GROWTH FACTOR 3 ANTIBODY, PREPARATION METHOD THEREFOR, AND USE THEREOF” (priority 2023, dated 2024):
No constants are given. Whether binding was seen depends on the method and setting. Some results given as binding are weak or reduced against the parent protein; the word gives no strength.

The chains behind the UniProt entries cited, without tags or fusion partners. Where a name states a change or a piece, a line headed by the entry shows the natural chain unless it says otherwise. A line that says so, or that is headed by a name, gives the form on record, which may keep a tag or linker.
cynomolgus HER3-ECD-His (G7PIG5, form named): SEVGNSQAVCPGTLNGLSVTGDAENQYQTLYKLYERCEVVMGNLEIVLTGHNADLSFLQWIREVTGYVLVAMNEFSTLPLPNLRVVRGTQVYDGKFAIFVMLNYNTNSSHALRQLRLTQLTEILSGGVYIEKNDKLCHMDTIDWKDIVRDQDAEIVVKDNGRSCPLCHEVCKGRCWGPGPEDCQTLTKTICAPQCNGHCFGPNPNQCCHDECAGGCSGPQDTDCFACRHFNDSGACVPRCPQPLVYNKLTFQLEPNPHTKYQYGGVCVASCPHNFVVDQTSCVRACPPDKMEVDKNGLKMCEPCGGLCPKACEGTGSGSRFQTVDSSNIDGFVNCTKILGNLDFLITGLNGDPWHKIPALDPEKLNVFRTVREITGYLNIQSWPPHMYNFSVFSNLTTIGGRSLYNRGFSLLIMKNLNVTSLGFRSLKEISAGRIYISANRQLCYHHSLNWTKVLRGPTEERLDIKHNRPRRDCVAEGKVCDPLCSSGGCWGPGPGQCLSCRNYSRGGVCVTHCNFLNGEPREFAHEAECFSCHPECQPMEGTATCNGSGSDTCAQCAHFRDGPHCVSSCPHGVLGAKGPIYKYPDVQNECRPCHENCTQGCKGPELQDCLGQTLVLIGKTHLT
cynomolgus HER3 on CHO cells (G7PIG5, form named): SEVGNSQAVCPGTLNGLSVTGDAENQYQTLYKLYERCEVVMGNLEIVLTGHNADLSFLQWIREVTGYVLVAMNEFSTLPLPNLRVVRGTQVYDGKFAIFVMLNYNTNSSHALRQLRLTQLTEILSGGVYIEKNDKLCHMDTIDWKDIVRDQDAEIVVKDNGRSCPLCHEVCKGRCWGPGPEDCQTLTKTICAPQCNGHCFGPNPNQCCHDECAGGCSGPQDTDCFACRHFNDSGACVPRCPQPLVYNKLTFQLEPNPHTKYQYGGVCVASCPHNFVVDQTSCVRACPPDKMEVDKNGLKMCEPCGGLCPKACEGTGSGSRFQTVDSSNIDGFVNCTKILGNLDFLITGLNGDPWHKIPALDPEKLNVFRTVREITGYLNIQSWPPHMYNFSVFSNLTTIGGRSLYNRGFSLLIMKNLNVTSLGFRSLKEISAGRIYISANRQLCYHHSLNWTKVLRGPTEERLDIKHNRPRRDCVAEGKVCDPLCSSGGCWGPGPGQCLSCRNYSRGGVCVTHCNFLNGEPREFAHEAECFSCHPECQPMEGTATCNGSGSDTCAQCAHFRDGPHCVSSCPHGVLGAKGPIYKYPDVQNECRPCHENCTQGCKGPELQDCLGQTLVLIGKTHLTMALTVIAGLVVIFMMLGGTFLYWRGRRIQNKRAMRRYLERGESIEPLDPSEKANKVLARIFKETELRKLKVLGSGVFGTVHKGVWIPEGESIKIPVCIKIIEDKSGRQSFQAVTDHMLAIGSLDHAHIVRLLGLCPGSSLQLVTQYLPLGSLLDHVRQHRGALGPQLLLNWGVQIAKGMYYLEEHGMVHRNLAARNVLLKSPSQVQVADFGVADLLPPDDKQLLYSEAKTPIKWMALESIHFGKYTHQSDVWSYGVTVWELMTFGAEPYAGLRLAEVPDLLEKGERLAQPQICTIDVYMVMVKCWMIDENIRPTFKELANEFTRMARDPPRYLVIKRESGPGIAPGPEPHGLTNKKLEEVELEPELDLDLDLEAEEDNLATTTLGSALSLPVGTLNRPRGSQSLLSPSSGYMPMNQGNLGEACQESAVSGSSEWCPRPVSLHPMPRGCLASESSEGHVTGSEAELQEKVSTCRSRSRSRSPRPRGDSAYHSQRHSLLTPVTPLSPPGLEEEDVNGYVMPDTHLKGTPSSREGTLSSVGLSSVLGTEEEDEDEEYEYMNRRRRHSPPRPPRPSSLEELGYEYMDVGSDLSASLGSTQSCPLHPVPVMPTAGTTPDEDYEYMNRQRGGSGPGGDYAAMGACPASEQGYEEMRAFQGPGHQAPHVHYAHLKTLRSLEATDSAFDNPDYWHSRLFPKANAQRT

Legend:
[1] = biological target: cynomolgus HER3-ECD-His (cynomolgus monkey) (UniProt G7PIG5); experiment: ELISA on coated cyno HER3-ECD-His
[2] = biological target: cynomolgus HER3 on CHO cells (cynomolgus monkey) (UniProt G7PIG5); experiment: FACS on CHO cells overexpressing cynomolgus monkey HER3
[3] = biological target: cynomolgus HER3-ECD-His (cynomolgus monkey) (UniProt G7PIG5); experiment: ELISA on coated cynomolgus HER3-ECD-His

| binding [1] | binding [2] | binding [3] | Binder |
| --- | --- | --- | --- |
| binds | binds | – | hHE4-G1W (antibody, human IgG1, V domains shown, not shown: a dimerising Fc or GST) VH: QVQLVESGGGLVKPGGSLRLSCAASGFTFSSYVMSWVRQAPGKGLEWVATISDGDSSTYYADSVKGRFTISRDNAKNSLYLQMNSLRAEDTAVYYCARDKGHGYDEGAFVYWGQGTLVTVSS VL: DIQMTQSPSSLSASVGDRVTITCRASENIYSYLAWYQQKPGKAPKLLIYNAKTLAEGVPSRFSGSGSGTDFTLTISSLQPEDFATYYCQNHYGTPYTFGQGTKLEIKR |
| – | – | binds | cHE7-G1W (antibody, human IgG1, V domains shown, not shown: a dimerising Fc or GST) VH: EVQLQQSGPDLVKPGTSVKMSCKASGYTFTDYYMHWVRQSHGKSLEWIGYINPNNGDAIYNQKFKGKATLTVDKSSTTAYMALRSLTSEDSAVYFCATYDYGGDFYFDVWGTGTTVTVSS VL: DIELTQSPALMSASPGEKVTMTCSASSSVSYMYWYQQKPRSSPKPWIYLTSNLASGVPARFSGSGSGTSYSLTISSMEAEDAATYYCQQWSRNPLTFGAGTKLELKR |

More lines, now with the values behind:

| Binder | binding [1] | binding [2] | binding [3] |
| --- | --- | --- | --- |
| cHE4-G1W (antibody, human IgG1, V domains shown, not shown: a dimerising Fc or GST) VH: EVQLVESGGGLVKPGGSLKLSCAASGFTFSSYVMSWVRQTPEKRLEWVATISDGDSSTYYPDNVKGRFTISRDNAKNNLFLQMSHLKSEDTAMYFCARDKGHGYDEGAFVYWGQGTLVTVSA VL: DIQMTQSPASLSASVEETVTITCRASENIYSYLAWYQQKQGKSPQLLVYNAKTLAEGVPSRFSGSGSGTEFSLKINSLQPEDFGSYYCQNHYGTPYTFGGGTKLEIKQ | binds | binds | – |
| cHE6-G1W (antibody, human IgG1, V domains shown, not shown: a dimerising Fc or GST) VH: EVQLQQSGPDLVKPGTSVKMSCKASGYTFTDYYMHWVRQSHGKSLEWIGYINPNNGDAIYNQKFKGKATLTVNKSSTTAYMALRSLTSEDSAVYFCATYDYGGDFYFDVWGTGTTVTVSS VL: DIELTQSPALMSASPGEKVTMTCSASSSVSYMYWYQQKPRSSPKPWIYLTSNLASGVPARFSGSGSGTSYSLTISSMEAEDAATYYCQQWSRNPLTFGAGTKLELKR | – | – | binds |
